In ChEMBL document CHEMBL4513155, “CO-ADD screening of University of Sydney (Australia) compounds” (2021):
The other results are listed elsewhere or left out. Results with a measured potency or affinity are listed apart.

These compounds were tested on Acinetobacter baumannii. Conditions: Concentration 32 ug.mL-1; ASSAY_TEST Inhibition of Bacterial Growth; detection method Absorption (OD600); MEDIA CAMHB; plate type 384well; NBS; CORNING #3640; time 18 hr.

Row | Structure (SMILES) | Inhibition
1 | CCN1C(=O)c2cccc3c(-c4cn(CCN5CCCNCCN(CCn6cc([C@]7(O)CC[C@H]8[C@@H]9CCc%10cc(O)ccc%10[C@H]9CC[C@@]87C)nn6)CCCNCC5)nn4)ccc(c23)C1=O.OCCN1CCN(CCCN2c3ccccc3Sc3ccc(Cl)cc32)CC1.[O-][Cl+3]([O-])([O-])[O-].[O-][Cl+3]([O-])([O-])[O-].[Zn+2] | -1.2%
2 | CN(C)C(COc1cncc2nnc(-c3ccc(C#N)cc3)n12)c1ccc(F)c(F)c1 (configuration not stated) | 1.96%
3 | O.O=C1c2cccc3c(-n4cc(CN5CCCNCCN(Cc6cn(-c7ccc8c9c(cccc79)C(=O)N(CCCO)C8=O)nn6)CCCNCC5)nn4)ccc(c23)C(=O)N1CCCO.[Cl-].[Cl-].[Zn+2] | 9.8%
4 | Fc1ccc(CCOc2cncc3nnc(-c4ccc(C(F)(F)F)nc4)n23)cc1F | 0%
5 | COC(COc1cncc2nnc(-c3ccc(C#N)cc3)n12)c1ccc(F)c(F)c1 (configuration not stated) | -2.77%
6 | Fc1ccc(CCOc2cncc3nnc(-c4ccc(Cl)cc4)n23)cc1F | -3.21%
7 | N#Cc1ccc(-c2nnc3cncc(OCC(O)c4ccc(F)c(F)c4)n23)cc1 (configuration not stated) | -3.62%
